Reference: PubChem BioAssay AID493014 (National Center for Advancing Translational Sciences (NCATS), 2011)
In all, about 340,000 compounds went through this assay and about 170 (0.05%) were called active. The inconclusive results got no clear call from the source; some entries with a clear call stand among them for comparison. Calls come from the whole dose curve; as a rule, active = well fitted inhibition curve with a large enough effect in the signal ratio, with a control signal flat (not every such curve was filed as active); inconclusive = small, poorly fitted or top-dose-only effect, or effect the other way, or a change in a side signal; inactive = flat fitted curve, though single readings scatter; the % refers to the signal ratio. Potencies beside an inconclusive call are fits to weak or partial responses and may not hold up.

Test: qHTS Assay to Find Inhibitors of Chronic Active B-Cell Receptor Signaling;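 for activity change, negative = inhibition: plate controls were basal doxycycline-induced cells for no effect and cells given 10 µM MG132 for full effect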
Conditions: ABC-DLBCL IkBa-CBG/CBR reporter, luminescence ratio (green luciferase fused to IkBa over red control in TMD8 lymphoma cells), 4 h; activity change, negative = inhibition: at 46.1 µM (top of the series)
Procedure, shortened: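 Doxycycline induced both beetle luciferases in TMD8 lymphoma cells; IKK-driven degradation limits the IkappaBalpha-fused green signal, while red luminescence normalises for cell number and nonspecific effects. Compounds tested up to 46 uM, 4 hrs.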
Potency is the fitted concentration of half-maximal effect.

Q: Which “activity change, negative = inhibition” value does the source give for `CSC(=NC#N)N1CCN(c2ccccc2)CC1` here?
A: inactive: -1.06%

Q: Which activity change, negative = inhibition does the source give for `CCOc1ncccc1C(=O)OCC(=O)NC1CCCCC1` here?
A: inconclusive: 2.34%

Q: Which Potency does the source give for `CCCCCCCCCCCCCCCC(=O)OC(CC(=O)O)C[N+](C)(C)C` (stereo unspecified) here?
A: inconclusive: 29.1 µM [rising, partial curve, poor fit]

Q: For `CCCCCCCCCCCCCCCC(=O)NCCO`, which “activity change, negative = inhibition” value is on record?
A: inactive: -12.8%

Q: For `Cc1ccc(OCCCn2c(=O)sc3ccccc32)cc1`, which “activity change, negative = inhibition” value is on record?
A: inactive: 10.2%

Q: With `O=C1NN(c2ccccc2)C(=O)/C1=C/c1ccc(-c2cccc(C(=O)O)c2)o1` as the molecule, how does the Potency read?
A: inconclusive: 15.8 µM [falling, single point]

Q: With `CCOC(=O)c1cn(CC)c2cc(Cl)c([N+](=O)[O-])cc2c1=O` as the molecule, how does the “activity change, negative = inhibition” value read?
A: inactive: 17%

Q: Which activity change, negative = inhibition does the source give for `CC(=O)c1ccc(C(=O)N(Cc2cccnc2)c2nc3c(Cl)cccc3s2)cc1` here?
A: inconclusive: 27.7%

Q: For `CC12CCC(C(=O)N(NC(=O)c3ccccc3Cl)C1=O)C2(C)C` (stereo unspecified), which activity change, negative = inhibition is on record?
A: inconclusive: -17.4%

Q: With `CCN(CC)c1ccc(CNc2ccc(Br)cn2)cc1` as the molecule, how does the activity change, negative = inhibition read?
A: inconclusive: 20.8%

Q: For `Cc1cc(CNC(=O)Cc2ccc(F)cc2)c2ccccc2n1`, which Potency is on record?
A: inconclusive: 35.5 µM [falling, single point]

Q: Which activity change, negative = inhibition does the source give for `CCN1/C(=C2\C(=O)N(c3ccccc3)N=C2C)C=Cc2cc(C)ccc21` here?
A: inconclusive: 11.3%

Q: With `Cc1nn(CC(=O)NC(C)c2ccccc2)c(=O)c2ccccc12` (stereo unspecified) as the molecule, how does the activity change, negative = inhibition read?
A: inconclusive: 1.09%

Q: For `O=C(CCS(=O)(=O)c1ccccc1)Nc1cccc(-c2nc3ccccc3s2)c1`, which activity change, negative = inhibition is on record?
A: inconclusive: 4.39%

Q: For `CC[C@@H]1C=C(C(=O)O)[C@H](c2ccc3c(c2)OCO3)N1S(=O)(=O)c1ccc(C)cc1`, which activity change, negative = inhibition is on record?
A: inconclusive: -0.119%

Q: For `CC(=O)c1ccc(OCCOc2ccc([N+](=O)[O-])cc2)cc1`, which activity change, negative = inhibition is on record?
A: inconclusive: 0.788%

Q: Which Potency does the source give for `COc1ccc(-n2c(C)nc3cc(C(=O)NC4CCCC4)ccc32)cc1` here?
A: inconclusive: 3.16 µM [falling, single point]

Q: With `Cc1cc(N)c2ccccc2n1` as the molecule, how does the activity change, negative = inhibition read?
A: inconclusive: -10.7%

Q: For `O=C(/C=C/c1ccco1)Oc1cccc2cccnc12`, which Potency is on record?
A: inconclusive: 35.5 µM [falling, single point]

Q: Which activity change, negative = inhibition does the source give for `CCN1CCc2c(sc(NC(=O)c3cc4ccccc4cc3OC)c2C(N)=O)C1` here?
A: inconclusive: 9.88%

Q: Which Potency does the source give for `C/C(CC(=O)Nc1ccc(Br)cc1)=N\NC(=O)c1cccc(O)c1` here?
A: inconclusive: 3.55 µM [falling, partial curve]

Q: Which “activity change, negative = inhibition” value does the source give for `COc1ccc(Cl)cc1NC(=S)NCc1ccccn1` here?
A: inactive: -0.0249%

Q: With `Cc1cc(NC(=O)c2c(F)cccc2F)n(-c2nc3ccccc3[nH]2)n1` as the molecule, how does the activity change, negative = inhibition read?
A: inconclusive: 1.76%

Q: Which “activity change, negative = inhibition” value does the source give for `O=C(c1cccc(Cl)c1)N1CCC(=O)N(C(COCc2cccc(Cl)c2)Cc2ccccc2)CC1` (stereo unspecified) here?
A: inactive: -5.11%

Q: For `CC(=O)Nc1ccc(S(=O)(=O)N(C)CC(=O)OCC(=O)Nc2cccnc2Cl)cc1`, which activity change, negative = inhibition is on record?
A: inconclusive: 6.38%

Q: With `Clc1cccc(-c2sc(Nc3ccccc3)n[n+]2-c2ccccc2)c1Cl` as the molecule, how does the Potency read?
A: inconclusive: 17.8 µM [falling, single point]

Q: With `CN(C)CCCN(C(=O)CCc1ccccc1)c1nc2ccc(Br)cc2s1` as the molecule, how does the “activity change, negative = inhibition” value read?
A: inactive: 13.8%

Q: With `O=C(CSc1nc2ccccc2[nH]1)Nc1c(F)cccc1F` as the molecule, how does the Potency read?
A: inconclusive: 17.8 µM [falling, partial curve]

Q: Which activity change, negative = inhibition does the source give for `COc1cc(NC(=S)NCCN2CCOCC2)cc(OC)c1` here?
A: inconclusive: 1.22%

Q: With `CCCC(=O)Nc1nc2ccc(C(=O)OCC)cc2s1` as the molecule, how does the Potency read?
A: inconclusive: 5.17 µM [falling, partial curve, poor fit]

Q: For `O=C(N/N=C/C=C/c1ccccc1)NC1CCCCC1`, which Potency is on record?
A: inconclusive: 17.8 µM [falling, single point]

Q: With `CCOC(=O)c1c(C)n(C)c2ccc(OCC(O)Cn3nc(C)c(Br)c3C)cc12` (stereo unspecified) as the molecule, how does the activity change, negative = inhibition read?
A: inconclusive: -3.29%

Q: With `C=CCNc1sc(C(=O)c2ccccc2)c(N)c1-c1nc2ccccc2s1` as the molecule, how does the Potency read?
A: inconclusive: 35.5 µM [falling, single point]

Q: With `O=C1NC(=S)S/C1=C\c1ccc(SCc2ccccc2)o1` as the molecule, how does the Potency read?
A: inconclusive: 7.31 µM [rising, partial curve, poor fit]

Q: Which “activity change, negative = inhibition” value does the source give for `COc1ccc(CCC(=O)N2CCCC(Nc3ccc(C)c(C)c3)C2)cc1OC` (stereo unspecified) here?
A: inactive: 2.91%

Q: For `CCCCCc1cc(O)c2c(C)cc(=O)oc2c1`, which Potency is on record?
A: inconclusive: 29.1 µM [falling, single point]

Q: With `S=C(Nc1ccc2cn[nH]c2c1)Nc1ccccc1Cl` as the molecule, how does the Potency read?
A: inconclusive: 23.1 µM [falling, partial curve, poor fit]

Q: Which Potency does the source give for `COc1ccc(NS(=O)(=O)c2cccc(C(=O)N/N=C/c3ccccc3OC)c2)cc1` here?
A: inconclusive: 18.4 µM [falling, partial curve, poor fit]

Q: For `COCCNC(=S)N(Cc1cccs1)Cc1cc2cccc(C)c2[nH]c1=O`, which Potency is on record?
A: inconclusive: 12.6 µM [falling, partial curve, poor fit]

Q: For `O=C(Nc1ccc(CN2CCOCC2)cc1)c1ccco1`, which “activity change, negative = inhibition” value is on record?
A: inactive: -7.85%

Q: Which Potency does the source give for `CCOCCCNC(=S)N1CCC(C(=O)c2ccc3c(c2)OCCO3)CC1` here?
A: inconclusive: 22.4 µM [falling, partial curve, poor fit]

Q: Which activity change, negative = inhibition does the source give for `Cc1cc(O)cc(O)c1-c1onc(C(F)(F)F)c1-c1cscn1` here?
A: inconclusive: -24.6%

Q: For `CCCN1CCN(CCCNC(=O)c2cc3c(s2)-c2ccccc2OC3)CC1`, which activity change, negative = inhibition is on record?
A: inconclusive: 2.72%

Q: With `COc1ccc2nc(NC(=O)CN(C)S(=O)(=O)c3cccs3)sc2c1` as the molecule, how does the activity change, negative = inhibition read?
A: inconclusive: -3.41%

Q: For `O=C(CN(Cc1ccc(Cl)c(Cl)c1)S(=O)(=O)c1ccccc1)N/N=C\c1ccc2c(c1)OCO2`, which “activity change, negative = inhibition” value is on record?
A: inactive: -10.2%

Q: With `CC(C1CC1)N(Cc1ccccc1)C(=S)Nc1ccccc1` (stereo unspecified) as the molecule, how does the “activity change, negative = inhibition” value read?
A: inactive: -3%

Q: With `COc1ccc(NC(=O)Nc2cc(F)ccc2C)cc1` as the molecule, how does the Potency read?
A: inconclusive: 15.8 µM [falling, single point]

Q: With `CC(C)C1Nc2ccc(C(=O)O)cc2C2C=CCC21` (stereo unspecified) as the molecule, how does the activity change, negative = inhibition read?
A: inconclusive: -21.3%

Q: Which activity change, negative = inhibition does the source give for `c1ccc(Nc2cccc(Nc3ccccc3)c2)cc1` here?
A: inconclusive: -4.37%

Q: With `CCC(C)Sc1ccc([C@@H]2[C@H]3C(=O)N(CC)C(=O)[C@H]3[C@]3(C(=O)OC)CCCCN23)cc1` (stereo partly specified) as the molecule, how does the activity change, negative = inhibition read?
A: inconclusive: 0.74%

Q: With `CCCNc1ncnc2c1c(-c1ccccc1)cn2-c1ccccc1` as the molecule, how does the activity change, negative = inhibition read?
A: inconclusive: 17.1%
